Values of other authors, collected in US6509371B1, “Compositions containing Bergamottin for increasing the oral bioavailability of pharmaceutical agents” (Warner-Lambert Company, priority 1997, dated 2003).

Amino acid sequences for entries named in this document (tags omitted).
UniProt P08684, whole entry: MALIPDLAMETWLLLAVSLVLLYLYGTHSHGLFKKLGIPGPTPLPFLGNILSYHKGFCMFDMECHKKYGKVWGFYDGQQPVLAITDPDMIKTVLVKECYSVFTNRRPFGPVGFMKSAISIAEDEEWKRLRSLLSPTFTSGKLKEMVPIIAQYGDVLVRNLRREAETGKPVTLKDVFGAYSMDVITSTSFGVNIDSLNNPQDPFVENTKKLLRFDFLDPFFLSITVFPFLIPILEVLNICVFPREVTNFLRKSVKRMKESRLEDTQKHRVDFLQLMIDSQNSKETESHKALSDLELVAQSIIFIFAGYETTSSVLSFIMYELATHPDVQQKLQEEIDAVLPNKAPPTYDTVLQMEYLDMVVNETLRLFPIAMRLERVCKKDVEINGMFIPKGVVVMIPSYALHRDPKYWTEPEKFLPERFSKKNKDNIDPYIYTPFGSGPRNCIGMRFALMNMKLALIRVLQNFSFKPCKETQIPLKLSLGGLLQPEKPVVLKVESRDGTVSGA

Tests used:
P450 3A4 = P450 3A4 (Homo sapiens, UniProt P08684); settings: in vivo; cited from earlier work
[1] = in vivo; cited from earlier work

For `COC(=O)C1=C(C)NC(C)=C(C(=O)OC)C1c1ccccc1[N+](=O)[O-]` [Nifedipine], the “Fraction Metabolized” value (P450 3A4) is listed as greater than 90% and the “Oral Bioavailability” value [1] is listed as 40-60%.
